From patent EP3479863B1, “COMPOSITIONS, METHODS AND ARTICLES CONCERNING PHARMACEUTICAL NITRIC OXIDE AND CONTROLLED PATIENT DELIVERY SYSTEMS THEREOF” (Mallinckrodt Pharmaceuticals Ireland Limited, priority 2010, dated 2012)

Assay: NO release from powdered acids hit by single 50 nL sodium nitrite droplets, measured with NO analyzer
Settings: 50 nL droplet of 6M NaNO2; for Maximum peak concentration: Example 2, 7 mg finely ground powder per well; for AUC: Example 2, NO peak, 7 mg finely ground powder per well
Description: Powdered acids of different acidity (TABLE 1) and reducing capacity, or mixtures at equal weight ratios thereof, were tested for their ability to promote NO release from concentrated aqueous solutions of sodium nitrite. Acids were finely ground and about 5-7 mg placed into wells of a reaction plate contained within a reaction chamber equipped with a microvalve capable of dispensing single 50 nL liquid droplets of sodium nitrite into each well. The reaction chamber was continuously flushed with air at defined flow rates and the NO concentration in the air measured with a […]® NO Analyzer 280i. When NO concentrations exceeded the measurement range of the NO analyzer, the air stream was diluted with a nitrogen stream of defined flow rate prior to measurement and the measured NO concentration corrected for the dilution factor. 50 ml of 6M NaNO2 stock solution was prepared and degassed for 15 minutes. 10 mL of the stock solution was filled into a liquid reservoir feeding a microvalve capable of dispensing single 50 nL liquid droplets sequentially into each of six wells of a reaction plate contained within a reaction chamber. The air flow rate through the reaction chamber was set to 500 mL/minute. The air flow was diluted with nitrogen gas to a flow rate of 1586 mL/minute to allow measurement of the entire NO peak with a […]® NO Analyzer 280i. The NO analyzer was calibrated using a 45 ppm NO calibration gas prior to the experiment. […] The microvalve fired a 50 nL droplet into each well. The timecourse of NO production was measured with the NO Analyzer. The following time parameters were analyzed for each NO peak: AUC, time to reaching 90% of the AUC, and maximum peak NO concentration.

Compound	Maximum peak concentration	AUC
O=C1O[C@H]([C@@H](O)CO)C(O)=C1O [Ascorbic Acid, reference compound]	156.4 ppm	304.16 ppm·sec
Croconic Acid	711.5 ppm	313.2 ppm·sec
